Series [1] is described as follows: in vivo. The note with it: mouse, iv. How it is done: LD50 was determined by using mice.
2. Acute toxicity in mice
Male ICR weighing 25 to 32 g were used. The test compounds were injected into tail vein and LD 50 values were determined.

The nature of series [2]: in vivo. The note with it: dog, iv.
The next series is described as follows: physchem. The settings on record: water.

In brackets after ≈: the same amount, converted by molar mass.

By LD50 is commonly meant the dose expected to kill half of the subjects tested. What is called solubility is how much of the substance goes into solution per volume. Regarding `COC(=O)C1=C(C)NC(C)=C(C(=O)OC)C1c1ccccc1[N+](=O)[O-]` [Nifedipine, 4-(2'-nitrophenyl)-2,6-dimethyl-1,4-dihydropyridine-3,5-dicarboxylic acid dimethyl ester], the 50% lethal dose (LD50) in the series “in vivo [1]” worked out at 5.6 mg/kg; in “in vivo [2]”, 1.5 mg/kg. Also, the solubility in “physchem” is 10 µg/mL (≈ 28.9 µM); in the series “physchem” (pH 4, water), 10 µg/mL (≈ 28.9 µM).

For the origin of these results see patent publication US3985758A, “1,4-Dihydropyridine derivatives” (Yamanouchi Pharmaceutical Co., Ltd., priority 1973, dated 1976).
